Values of other authors, collected in patent US20210087552A1, “Methods, Compositions, and Systems for Classification of Genetic Variants of Unknown Significance” (Laboratory Corporation of America Holdings, priority 2019, published 2021).
For at least one compound, name, drawing or mass did not settle the structure.

Test system: individual mutations in ABL1, ASXL1, BRAF, CSF3R, DNMT3A, EZH2, FLT3, IDH2, JAK2, KIT, KRAS, NF1, NRAS, PDGFRA, PML PTPN11, and TET2

COc1cc(Nc2c(C#N)cnc3cc(OCCCN4CCN(C)CC4)c(OC)cc23)c(Cl)cc1Cl [bosutinib]
mutation associated with resistance to agent: resistance
